Source: PubChem BioAssay AID743454 (Peter MacCallum Cancer Centre, 2014)

- Screen: 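Search for knock-downs that restore vorinostat killing in resistant colon cancer cells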 (primary screen)
- Cells: human HCT116-VR colon cancer cells, selected for vorinostat resistance
- Knock-down reagent: siRNA pool against human genes, 40 nM siRNA pool
- Timing: vorinostat for 24 h, read-out about 72 h after transfection
- Challenge: vorinostat at 2.5 µM final
- Measurement: 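Cell viability by CellTiter-Fluor and caspase 3/7 activity by luminescence, each scaled to mock wells per plate, duplicates averaged, then robust z-scored over all plates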
- Scale: viability robust z-score: higher = more viable cells than screen typical; caspase robust z-score: higher = more caspase 3/7 activity than screen typical
- Active means: 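a knock-down is a hit when classed RV1 or RV2 for lowered viability, or CA1 or CA2 for caspase activation; those lethal without drug were dropped; hits were retested singly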
Shown is a random part of about 18,000 reagents tested. Of all reagents, 450 (2.5%) got an active call. 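Single biological run; no consistent viability z cut-off exists, so the class columns, not z-scores, define the calls.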 Reagent sequences are not shown.

target,viability hit class,caspase hit class,viability robust z-score,caspase robust z-score,call
"ABHD10 (abhydrolase domain containing 10, depalmitoylase)",no change,no change,0.36,3.13,inactive
OLFML3 (olfactomedin like 3),no change,no change,-0.68,0.38,inactive
TOMM70 (translocase of outer mitochondrial membrane 70),no change,CA2 (caspase activation),0.12,5.16,active
GLE1 (GLE1 RNA export mediator),no change,no change,-0.02,3.64,inactive
NCF4 (neutrophil cytosolic factor 4),no change,no change,1.37,2.63,inactive
STX19 (syntaxin 19),no change,no change,-1.06,0.07,inactive
C5AR2 (complement C5a receptor 2),no change,no change,0.14,3.09,inactive
ZNF709 (zinc finger protein 709),no change,no change,-1.17,2.25,inactive
KLHL34 (kelch like family member 34),no change,no change,1.06,-0.12,inactive
PCDHB6 (protocadherin beta 6),no change,no change,0.83,-0.72,inactive
CCZ1 (CCZ1 vacuolar protein trafficking and biogenesis associated),no change,no change,1.31,-0.68,inactive
GOLGA6B (golgin A6 family member B),no change,no change,-1.23,-0.25,inactive
CDC20 (cell division cycle 20),no change,no change,-2.04,0.24,inactive
DRD4 (dopamine receptor D4),no change,no change,-0.5,0.5,inactive
MED8 (mediator complex subunit 8),no change,no change,-0.76,2.35,inactive
H2AC21 (H2A clustered histone 21),no change,no change,1.18,1.62,inactive
NTNG2 (netrin G2),no change,no change,-0.61,0.96,inactive
PDCD6IP (programmed cell death 6 interacting protein),no change,no change,-0.68,-0.8,inactive

2 entries from above, showing only “viability hit class”:
H2AC21 (H2A clustered histone 21) = no change
NTNG2 (netrin G2) = no change

Additional results follow.
target,viability hit class,caspase hit class,viability robust z-score,caspase robust z-score,call
"PPP3R1 (protein phosphatase 3 regulatory subunit B, alpha)",no change,no change,-0.56,-0.15,inactive
MED12L (mediator complex subunit 12L),no change,no change,0.75,0.4,inactive
STIM2 (stromal interaction molecule 2),no change,no change,-0.8,0.04,inactive
SLC4A10,no change,no change,0.26,-1.1,inactive
TMEFF2,no change,no change,0.05,0.12,inactive
CBR1 (carbonyl reductase 1),no change,no change,-1.32,1.88,inactive
GAD2 (glutamate decarboxylase 2),no change,no change,0.64,-0.72,inactive
"ADGRF2P (adhesion G protein-coupled receptor F2, pseudogene)",no change,no change,-0.85,0.36,inactive
"RAB19 (RAB19, member RAS oncogene family)",no change,no change,0.63,2.62,inactive
HAX1 (HCLS1 associated protein X-1),no change,no change,-0.02,2.2,inactive
PRH1 (proline rich protein HaeIII subfamily 1),no change,no change,0.12,2.51,inactive
GM2A (ganglioside GM2 activator),no change,no change,0.52,-0.49,inactive
TPD52L2 (TPD52 like 2),no change,no change,-1.27,3.57,inactive
RGS8 (regulator of G protein signaling 8),no change,no change,1.66,-0.74,inactive
FAT1 (FAT atypical cadherin 1),no change,no change,0.16,0.34,inactive
H3C2 (H3 clustered histone 2),no change,no change,0.49,-0.91,inactive
UMPS (uridine monophosphate synthetase),no change,no change,0.04,-0.48,inactive
PHF3 (PHD finger protein 3),no change,no change,-0.92,-1.06,inactive
VGLL3 (vestigial like family member 3),no change,no change,-0.48,-0.84,inactive
FZD1 (frizzled class receptor 1),no change,no change,1.46,0.66,inactive
PLN (phospholamban),no change,no change,0.88,-0.17,inactive
